Experimental data published in article doi:10.1101/559641.
Results are given in words; binding and its absence hold for the method and conditions named. Binding seen in cells or lysates may run through a third protein. Some binding calls cover weakened binding; strength is not graded here. For some assays here: Sequences can lack the tags named with a protein.

Amino acid sequences for entries named in this document (tags omitted).
UniProt Q61686: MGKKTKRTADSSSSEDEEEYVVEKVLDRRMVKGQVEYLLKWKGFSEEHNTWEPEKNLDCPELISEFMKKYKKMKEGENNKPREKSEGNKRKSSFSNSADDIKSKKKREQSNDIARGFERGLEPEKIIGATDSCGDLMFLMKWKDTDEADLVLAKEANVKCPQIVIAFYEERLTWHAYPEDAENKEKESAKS
UniProt Q04207: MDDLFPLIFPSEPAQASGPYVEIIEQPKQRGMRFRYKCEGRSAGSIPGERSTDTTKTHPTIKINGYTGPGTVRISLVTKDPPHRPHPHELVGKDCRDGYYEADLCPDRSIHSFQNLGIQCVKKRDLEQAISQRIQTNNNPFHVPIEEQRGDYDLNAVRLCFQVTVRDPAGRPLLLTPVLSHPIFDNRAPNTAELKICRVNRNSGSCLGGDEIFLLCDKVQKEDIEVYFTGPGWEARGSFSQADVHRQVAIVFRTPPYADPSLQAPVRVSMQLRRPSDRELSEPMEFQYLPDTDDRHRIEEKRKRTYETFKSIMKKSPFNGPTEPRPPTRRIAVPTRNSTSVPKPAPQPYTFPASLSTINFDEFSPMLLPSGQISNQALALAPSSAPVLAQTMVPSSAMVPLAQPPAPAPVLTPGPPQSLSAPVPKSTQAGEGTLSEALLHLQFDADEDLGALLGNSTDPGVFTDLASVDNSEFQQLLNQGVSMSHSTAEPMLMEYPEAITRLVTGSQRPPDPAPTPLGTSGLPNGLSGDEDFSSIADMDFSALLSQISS
UniProt O09106: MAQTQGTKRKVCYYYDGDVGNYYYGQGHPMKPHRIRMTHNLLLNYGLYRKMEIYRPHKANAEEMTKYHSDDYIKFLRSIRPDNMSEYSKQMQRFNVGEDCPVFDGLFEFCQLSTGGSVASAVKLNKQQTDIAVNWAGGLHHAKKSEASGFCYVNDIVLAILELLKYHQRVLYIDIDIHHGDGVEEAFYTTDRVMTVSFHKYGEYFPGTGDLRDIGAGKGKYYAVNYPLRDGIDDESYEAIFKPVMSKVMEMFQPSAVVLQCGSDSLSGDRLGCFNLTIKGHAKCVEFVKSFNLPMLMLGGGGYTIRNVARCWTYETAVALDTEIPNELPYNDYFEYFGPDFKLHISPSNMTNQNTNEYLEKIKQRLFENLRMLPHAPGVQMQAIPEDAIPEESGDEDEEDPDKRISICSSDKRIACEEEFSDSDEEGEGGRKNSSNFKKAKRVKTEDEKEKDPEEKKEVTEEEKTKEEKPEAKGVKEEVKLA
UniProt Q9Z2D8: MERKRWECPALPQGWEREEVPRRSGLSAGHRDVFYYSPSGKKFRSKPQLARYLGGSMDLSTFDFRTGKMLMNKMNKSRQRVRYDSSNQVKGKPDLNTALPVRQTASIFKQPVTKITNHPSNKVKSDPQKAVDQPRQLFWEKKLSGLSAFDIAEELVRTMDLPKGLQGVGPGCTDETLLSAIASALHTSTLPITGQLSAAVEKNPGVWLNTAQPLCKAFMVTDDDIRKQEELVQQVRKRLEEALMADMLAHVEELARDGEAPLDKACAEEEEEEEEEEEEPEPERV
UniProt Q64321: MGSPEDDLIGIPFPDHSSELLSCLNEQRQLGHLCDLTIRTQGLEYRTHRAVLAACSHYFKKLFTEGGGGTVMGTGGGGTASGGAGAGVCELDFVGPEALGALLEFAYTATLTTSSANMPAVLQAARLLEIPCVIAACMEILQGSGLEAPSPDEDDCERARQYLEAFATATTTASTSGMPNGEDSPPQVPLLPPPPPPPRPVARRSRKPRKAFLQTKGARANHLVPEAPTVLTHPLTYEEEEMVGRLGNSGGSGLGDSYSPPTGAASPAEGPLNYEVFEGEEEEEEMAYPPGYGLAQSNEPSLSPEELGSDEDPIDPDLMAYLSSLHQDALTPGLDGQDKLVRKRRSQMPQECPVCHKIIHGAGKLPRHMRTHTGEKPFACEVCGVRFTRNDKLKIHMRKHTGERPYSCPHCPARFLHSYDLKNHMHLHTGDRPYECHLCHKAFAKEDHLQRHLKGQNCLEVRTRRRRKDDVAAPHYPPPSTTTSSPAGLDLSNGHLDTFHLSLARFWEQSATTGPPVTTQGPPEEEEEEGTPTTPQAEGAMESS

How the values were obtained:
Test in all cases: co-IP
[1] = target: N-terminal GFP tagged Cbx5 (mouse (cDNA from C2C12 myoblast cells)) (UniProt Q61686)
[2] = target: N-terminal GFP tagged p65 (mouse (cDNA from C2C12 myoblast cells)) (UniProt Q04207)
[3] = target: N-terminal GFP tagged HDAC1 (mouse (cDNA from C2C12 myoblast cells)) (UniProt O09106)
[4] = target: T1, N-terminal GFP tagged RBM14 (mouse (cDNA from C2C12 myoblast cells)) (UniProt Q8C2Q3)
T1 sequence: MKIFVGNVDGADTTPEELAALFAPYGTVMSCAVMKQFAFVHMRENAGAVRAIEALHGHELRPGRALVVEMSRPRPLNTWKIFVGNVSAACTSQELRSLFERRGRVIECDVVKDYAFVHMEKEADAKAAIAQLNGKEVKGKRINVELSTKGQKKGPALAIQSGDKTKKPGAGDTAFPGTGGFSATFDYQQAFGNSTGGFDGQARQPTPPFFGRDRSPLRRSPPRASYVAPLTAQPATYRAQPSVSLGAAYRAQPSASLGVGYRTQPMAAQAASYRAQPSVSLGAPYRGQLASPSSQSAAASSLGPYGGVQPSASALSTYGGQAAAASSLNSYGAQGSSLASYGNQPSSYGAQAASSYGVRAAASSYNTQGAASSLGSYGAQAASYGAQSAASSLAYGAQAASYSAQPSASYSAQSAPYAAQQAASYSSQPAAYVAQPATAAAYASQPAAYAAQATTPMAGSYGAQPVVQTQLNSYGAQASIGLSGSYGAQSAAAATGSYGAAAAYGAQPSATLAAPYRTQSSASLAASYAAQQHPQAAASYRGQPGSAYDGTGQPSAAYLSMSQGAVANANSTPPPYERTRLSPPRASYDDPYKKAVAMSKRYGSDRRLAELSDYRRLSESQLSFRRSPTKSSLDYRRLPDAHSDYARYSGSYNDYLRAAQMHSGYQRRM

[5] = target: N-terminal GFP tagged MBD3 (mouse (cDNA from C2C12 myoblast cells)) (UniProt Q9Z2D8)

- binding [1]: binds
- binding [2]: binds
- binding [3]: binds
- binding [4]: binds
- binding [5]: binds
Substance: N-terminal 3X-FLAG-tagged vertebrate GAF (vGAF/ThPOK/ZBTB7B), expressed in HEK293 cells (from UniProt Q64321 1-544)
